Assay results taken from the supplement of paper PMC3682954.
Structures can show the parent of a compound that is named as a salt. ± gives the standard deviation of the averaged measurements. Some of the results follow. Repeats are few or missing, and single values can be far off.

Test system: RAW 264.7
Assay: HMGB1-induced TNF-alpha production relative to HMGB1-stimulated control; higher = more TNF-alpha secretion (less inhibition)
Settings: stimulus: HMGB1 5 ug/ml, 18 h
[1] = compound concentration: 1 ug/ml

Structure (SMILES)	HMGB1-induced TNF-alpha production [1] [%]	HMGB1-induced TNF-alpha production (compound concentration: 3 uM) [%]
CN1[C@@H](CC(=O)c2ccccc2)CCC[C@H]1C[C@H](O)c1ccccc1 [Lobeline hydrochloride]	63	
CN1[C@@H](CC(=O)c2ccccc2)CCC[C@H]1C[C@H](O)c1ccccc1 [Lobeline alpha (-) hydrochoride]		109
CN1[C@@H](CC(=O)c2ccccc2)CCC[C@H]1C[C@H](O)c1ccccc1 [Lobeline]		98
CN1[C@@H](CC(=O)c2ccccc2)CCC[C@H]1C[C@H](O)c1ccccc1 [alpha-Lobeline hydrochloride]		104
CN1[C@@H](CC(=O)c2ccccc2)CCC[C@H]1C[C@H](O)c1ccccc1		94.1 ± 23
CSc1nc(N)c2ncn([C@@H]3O[C@H](COP(=O)(O)OP(=O)(O)OP(=O)(O)O)[C@H](O)C3O)c2n1 (stereo partly drawn) [2-Methylthioadenosine triphosphate tetrasodium]		92.2
CC(=O)C(C)=O [2,3-Butanedione]		76
COc1cc(C(O)C(=O)O)ccc1O (racemic) [(±)-Vanillylmandelic acid]		88.9
CC1CS(=O)(=O)CCN1/N=C/c1ccc([N+](=O)[O-])o1 (stereo not drawn) [Nifurtimox]		99.9
NC(=O)NC(=O)Cc1ccccc1		99
O=C(O)Cc1sc(-c2ccccc2)nc1-c1ccc(Cl)cc1 [Fentiazac]		85.6 ± 1.4
OCc1cc(C(O)CNCCCCCCOCCCCc2ccccc2)ccc1O (stereo not drawn) [Salmeterol]		51.4 ± 11
OCc1cc(C(O)CNCCCCCCOCCCCc2ccccc2)ccc1O (stereo not drawn) [Salmeterol xinafoate]		50.5
C#CCN1C(C)=C(C(=O)OC)C(c2cccc([N+](=O)[O-])c2)C(C(=O)OCC)=C1C (stereo not drawn)		100
N=C(N)NCCC[C@H](N)C(=O)O [L-Arginine]		120
CNCCC(Oc1ccc(C(F)(F)F)cc1)c1ccccc1 (stereo not drawn) [Fluoxetine hydrochloride]		76.7 ± 26
CNCCC(Oc1ccc(C(F)(F)F)cc1)c1ccccc1 (stereo not drawn) [Fluoxetine]		71.5
CNCCC(Oc1ccc(C(F)(F)F)cc1)c1ccccc1 (stereo not drawn)		83.3
Cc1nc2n(c(=O)c1CCN1CCC(c3noc4cc(F)ccc34)CC1)CCCC2		96.3
Cc1nc2n(c(=O)c1CCN1CCC(c3noc4cc(F)ccc34)CC1)CCCC2 [Risperidone]		110 ± 26

Structure (SMILES)	HMGB1-induced TNF-alpha production [1] [%]	HMGB1-induced TNF-alpha production (compound concentration: 3 uM) [%]
O=c1oc2ccccc2c(-c2ccccc2)c1-c1ccc(Cl)cc1Cl [3(2',4'-Dichlorophenyl)-4-phenylcoumarin]	69.6	
CC(=O)Nc1ccc(CC(=O)O)cc1		107
COc1cc2cc3c4c(cc(OC)c(OC)c4c2cc1OC)CCN3C [Dehydroglaucine]	46.2	
Nc1ncnc2c1ncn2[C@@H]1O[C@H](COP(=O)(O)OP(=O)(O)OP(=O)(O)O)[C@@H](O)[C@H]1O	66.6	
CCN1CC(CCN2CCOCC2)C(c2ccccc2)(c2ccccc2)C1=O (stereo not drawn)		103
N[C@@H](C(=O)N[C@@H]1C(=O)N2C(C(=O)O)=C(CSc3cn[nH]n3)CS[C@H]12)c1ccc(O)cc1		113
COc1ccc(-c2cc(=O)c3ccc(O)cc3o2)cc1	82.2	
CCCCNC(=O)NS(=O)(=O)c1ccc(C)cc1		90.4
CCCCNC(=O)NS(=O)(=O)c1ccc(C)cc1 [Tolbutamide]		94.8 ± 8.5
COc1ccc(-c2oc3ccccc3c(=O)c2O)cc1OC	80.4	
O=C(O)c1cc(-c2ccc(F)cc2F)ccc1O		78.7
O=C(O)c1cc(-c2ccc(F)cc2F)ccc1O [Diflunisal]		77.7 ± 21
CC(=O)[C@H]1CC[C@H]2[C@@H]3C[C@H](C)C4=CC(=O)CC[C@]4(C)[C@H]3[C@@H](O)C[C@]12C [Medrysone]		62.7
CC(=O)[C@H]1CC[C@H]2[C@@H]3C[C@H](C)C4=CC(=O)CC[C@]4(C)[C@H]3[C@@H](O)C[C@]12C		68.5
CCOC(=O)OC(C)OC1=C(C(=O)Nc2ccccn2)N(C)S(=O)(=O)c2ccccc21 (stereo not drawn) [Ampiroxicam]		100
CCOC(=O)OC(C)OC1=C(C(=O)Nc2ccccn2)N(C)S(=O)(=O)c2ccccc21 (stereo not drawn)		90.2
CCOc1ccccc1OCCN[C@H](C)Cc1ccc(OC)c(S(N)(=O)=O)c1 [Tamsulosin]		102
CCCCCCCCCCC/C=C\C(C)(C)/C=C\CCCC(=O)O [7,7-Dimethyl-(5Z,8Z)-eicosadienoic acid]		91.7
CCCCCCCCCCCCC[N+](C)(C)Cc1ccccc1		59.2 ± 22
O=S(=O)(O)CCS [Mesna]		104

Structure (SMILES)	HMGB1-induced TNF-alpha production [1] [%]	HMGB1-induced TNF-alpha production (compound concentration: 3 uM) [%]
O=S(=O)(O)CCS		91.6
CCn1cc(C(=O)O)c(=O)c2cnc(N3CCCC3)nc21		85.9
CCn1cc(C(=O)O)c(=O)c2cnc(N3CCCC3)nc21 [Piromidic acid]		127
Cc1cc2c(cc1Cl)N(C(=O)Nc1cccc3ncccc13)CC2		101
CC(C)Nc1ncccn1		79
CC(C)(C)NC[C@H](O)c1ccc(O)c(CO)c1		107
Nc1nc(=O)c2c([nH]1)NC[C@@H](CNc1ccc(C(=O)N[C@@H](CCC(=O)O)C(=O)O)cc1)N2C=O [Folinic acid calcium salt]		91.3
COc1ccc2cc([C@@H](C)C(=O)O)ccc2c1 [(R) -Naproxen sodium salt]		101
CC(C)NCC(O)COc1cccc2ccccc12 (stereo not drawn) [Propranolol]		103
CCN1CCCC1CN=Cc1c(O)c(O)c(C(C)C)c2cc(C)c(-c3c(C)cc4c(C(C)C)c(O)c(O)c(C=NCC5CCCN5CC)c4c3O)c(O)c12 (stereo not drawn)	82.2	
CC(C)C[C@H](NC(=O)[C@H]1O[C@@H]1C(=O)O)C(=O)NCCCCN=C(N)N		106
CC1(C)NC(=O)N(c2ccc([N+](=O)[O-])c(C(F)(F)F)c2)C1=O		75.8
CC1(C)NC(=O)N(c2ccc([N+](=O)[O-])c(C(F)(F)F)c2)C1=O [Nilutamide]		109 ± 10
CCCCCCc1ccc(O)cc1O		94.2
CCCCC(CC)CNC(=N)NC(=N)NCCCCCCNC(=N)NC(=N)NCC(CC)CCCC (stereo not drawn) [Alexidine dihydrochloride]		46.8
COC(=O)[C@@H]1[C@H]2C[C@H]3c4[nH]c5ccccc5c4CCN3C[C@@H]2CC[C@@H]1O [Yohimbine HCl]		88.7
COC(=O)[C@@H]1[C@H]2C[C@H]3c4[nH]c5ccccc5c4CCN3C[C@@H]2CC[C@@H]1O [Yohimbine hydrochloride]		99.6 ± 7.2
COC(=O)[C@@H]1[C@H]2C[C@H]3c4[nH]c5ccccc5c4CCN3C[C@@H]2CC[C@@H]1O		82.5

2 records drawn at random from those above:
Structure (SMILES)	HMGB1-induced TNF-alpha production [1] [%]	HMGB1-induced TNF-alpha production (compound concentration: 3 uM) [%]
COC(=O)[C@@H]1[C@H]2C[C@H]3c4[nH]c5ccccc5c4CCN3C[C@@H]2CC[C@@H]1O [Yohimbine HCl]		88.7
Cc1cc2c(cc1Cl)N(C(=O)Nc1cccc3ncccc13)CC2		101
